Values quoted from earlier work in patent US9757338B2 (priority 2010, dated 2017).

Settings: in vivo

Structure (SMILES): COc1cc2c(cc1OC)C(=O)C(CC1CCN(Cc3ccccc3)CC1)C2.Cl (racemic) [Donepezil, (±)-2,3-dihydro-5,6-dimethoxy-2-[[1-(phenylmethyl)-4-piperidinyl]methyl]-1H-inden-1-one hydrochloride]
- crossing of the blood-brain barrier: easily crosses the blood-brain barrier
